These are yes or no findings as the source states them, for the method shown. In cells and extracts the contact can be indirect. For part of these data: Tags and fused reporters may be left off the sequences shown.
T1: FANCJ (BRCA1 Interacting Protein 1, BRIP1), endogenous wild-type protein in mouse testis (mouse (endogenous in testis)) (UniProt Q5SXJ3)
T1 sequence: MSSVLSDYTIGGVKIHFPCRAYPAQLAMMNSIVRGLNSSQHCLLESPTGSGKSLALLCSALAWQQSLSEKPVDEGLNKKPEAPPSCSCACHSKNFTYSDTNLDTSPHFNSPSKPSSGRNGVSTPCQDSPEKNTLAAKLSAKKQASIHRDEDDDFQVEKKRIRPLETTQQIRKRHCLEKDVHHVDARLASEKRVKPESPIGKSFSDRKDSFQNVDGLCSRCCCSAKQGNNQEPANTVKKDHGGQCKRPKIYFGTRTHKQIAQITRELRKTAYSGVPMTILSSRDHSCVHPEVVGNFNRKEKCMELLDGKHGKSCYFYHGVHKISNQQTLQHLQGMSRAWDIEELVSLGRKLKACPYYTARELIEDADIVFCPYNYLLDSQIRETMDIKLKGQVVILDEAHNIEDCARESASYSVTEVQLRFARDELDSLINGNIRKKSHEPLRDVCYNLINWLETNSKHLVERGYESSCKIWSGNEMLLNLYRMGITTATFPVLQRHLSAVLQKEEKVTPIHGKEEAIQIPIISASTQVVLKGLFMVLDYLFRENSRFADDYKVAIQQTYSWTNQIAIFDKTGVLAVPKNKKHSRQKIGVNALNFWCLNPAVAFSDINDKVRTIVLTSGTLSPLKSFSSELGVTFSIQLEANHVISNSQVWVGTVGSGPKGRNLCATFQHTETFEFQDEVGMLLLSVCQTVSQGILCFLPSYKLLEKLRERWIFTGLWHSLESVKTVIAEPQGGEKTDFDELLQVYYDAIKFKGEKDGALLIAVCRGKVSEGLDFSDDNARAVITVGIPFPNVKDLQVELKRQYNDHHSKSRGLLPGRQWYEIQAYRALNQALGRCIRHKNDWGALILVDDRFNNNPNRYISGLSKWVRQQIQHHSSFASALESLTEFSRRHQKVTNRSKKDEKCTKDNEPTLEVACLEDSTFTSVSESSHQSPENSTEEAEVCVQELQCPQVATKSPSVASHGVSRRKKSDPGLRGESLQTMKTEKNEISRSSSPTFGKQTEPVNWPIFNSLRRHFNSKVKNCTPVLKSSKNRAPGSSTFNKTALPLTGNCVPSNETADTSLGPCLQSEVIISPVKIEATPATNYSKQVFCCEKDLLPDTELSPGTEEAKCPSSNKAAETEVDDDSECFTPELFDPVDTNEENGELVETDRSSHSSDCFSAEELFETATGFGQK

By UniProt entry, the sequences of proteins in these tests, tags left out.
UniProt P60122: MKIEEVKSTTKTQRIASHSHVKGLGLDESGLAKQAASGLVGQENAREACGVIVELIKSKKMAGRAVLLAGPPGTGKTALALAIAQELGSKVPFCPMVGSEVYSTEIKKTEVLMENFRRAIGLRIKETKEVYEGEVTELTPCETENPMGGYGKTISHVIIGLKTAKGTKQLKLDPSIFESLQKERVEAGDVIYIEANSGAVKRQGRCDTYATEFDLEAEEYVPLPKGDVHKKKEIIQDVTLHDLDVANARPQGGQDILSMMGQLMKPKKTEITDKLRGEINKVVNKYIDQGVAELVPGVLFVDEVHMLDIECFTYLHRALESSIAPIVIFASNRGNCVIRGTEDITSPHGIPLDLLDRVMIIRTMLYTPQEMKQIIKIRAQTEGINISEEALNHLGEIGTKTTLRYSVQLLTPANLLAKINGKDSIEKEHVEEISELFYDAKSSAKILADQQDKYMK
UniProt Q6ZQF0: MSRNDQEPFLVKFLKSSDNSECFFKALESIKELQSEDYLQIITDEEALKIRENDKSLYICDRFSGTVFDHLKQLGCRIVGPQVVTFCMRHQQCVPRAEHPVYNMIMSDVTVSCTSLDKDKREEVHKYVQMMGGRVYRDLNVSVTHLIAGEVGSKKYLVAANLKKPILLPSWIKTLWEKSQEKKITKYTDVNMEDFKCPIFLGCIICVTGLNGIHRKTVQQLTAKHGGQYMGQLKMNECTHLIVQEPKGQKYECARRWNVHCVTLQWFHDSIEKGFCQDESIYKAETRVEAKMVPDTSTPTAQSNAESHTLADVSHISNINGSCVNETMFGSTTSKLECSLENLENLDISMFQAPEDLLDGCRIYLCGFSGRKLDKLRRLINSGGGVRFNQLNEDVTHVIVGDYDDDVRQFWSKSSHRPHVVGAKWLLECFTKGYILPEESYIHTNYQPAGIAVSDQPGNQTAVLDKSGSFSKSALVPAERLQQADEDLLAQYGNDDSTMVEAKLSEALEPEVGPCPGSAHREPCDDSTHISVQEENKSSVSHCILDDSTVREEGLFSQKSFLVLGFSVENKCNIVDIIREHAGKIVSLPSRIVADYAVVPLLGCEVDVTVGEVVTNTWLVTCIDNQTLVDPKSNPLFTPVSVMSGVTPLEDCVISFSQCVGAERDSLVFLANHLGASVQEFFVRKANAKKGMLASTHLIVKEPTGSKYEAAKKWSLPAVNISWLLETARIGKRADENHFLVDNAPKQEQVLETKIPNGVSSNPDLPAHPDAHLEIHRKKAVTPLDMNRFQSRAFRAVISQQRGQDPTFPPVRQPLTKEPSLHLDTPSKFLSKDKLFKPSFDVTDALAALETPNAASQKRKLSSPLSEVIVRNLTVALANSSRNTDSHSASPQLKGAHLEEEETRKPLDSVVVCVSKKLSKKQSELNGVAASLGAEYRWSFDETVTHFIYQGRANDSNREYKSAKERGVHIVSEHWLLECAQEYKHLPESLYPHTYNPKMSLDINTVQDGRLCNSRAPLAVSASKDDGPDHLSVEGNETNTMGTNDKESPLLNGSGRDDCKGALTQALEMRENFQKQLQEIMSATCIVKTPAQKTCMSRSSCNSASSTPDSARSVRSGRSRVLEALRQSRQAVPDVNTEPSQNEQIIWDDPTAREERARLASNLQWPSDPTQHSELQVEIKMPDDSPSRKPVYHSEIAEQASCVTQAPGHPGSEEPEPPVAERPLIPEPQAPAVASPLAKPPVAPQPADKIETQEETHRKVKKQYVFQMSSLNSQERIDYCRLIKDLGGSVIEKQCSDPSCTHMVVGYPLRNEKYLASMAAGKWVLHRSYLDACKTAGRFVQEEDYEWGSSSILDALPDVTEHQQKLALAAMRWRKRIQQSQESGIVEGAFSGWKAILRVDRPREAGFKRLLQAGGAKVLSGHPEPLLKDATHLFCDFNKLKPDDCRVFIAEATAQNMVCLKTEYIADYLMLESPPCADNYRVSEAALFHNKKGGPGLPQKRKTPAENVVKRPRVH
UniProt Q9D5P4: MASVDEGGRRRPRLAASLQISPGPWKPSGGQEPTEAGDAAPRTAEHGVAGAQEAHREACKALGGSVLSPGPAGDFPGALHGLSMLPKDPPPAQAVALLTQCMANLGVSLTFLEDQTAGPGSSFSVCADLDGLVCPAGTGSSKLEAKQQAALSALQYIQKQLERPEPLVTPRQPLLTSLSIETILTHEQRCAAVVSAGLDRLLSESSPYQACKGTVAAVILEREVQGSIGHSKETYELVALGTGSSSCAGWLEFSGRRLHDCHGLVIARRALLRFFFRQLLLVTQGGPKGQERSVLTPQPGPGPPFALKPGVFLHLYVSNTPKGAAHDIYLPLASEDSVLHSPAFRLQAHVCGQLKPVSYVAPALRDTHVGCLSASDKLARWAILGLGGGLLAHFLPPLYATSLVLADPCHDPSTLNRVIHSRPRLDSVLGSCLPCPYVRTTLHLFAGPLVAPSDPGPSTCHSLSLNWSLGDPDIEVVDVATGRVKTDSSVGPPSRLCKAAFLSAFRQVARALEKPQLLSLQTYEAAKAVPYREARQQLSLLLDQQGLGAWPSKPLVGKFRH

T2: FANCJ-HA (endogenous FANCJ with C-terminal 6xHis-HA epitope tag, Fancj^HA allele) (mouse (endogenous in testis)) (UniProt Q5SXJ3)
T2 sequence: T1 sequence

B1: ATRIP (protein, UniProt Q8BMG1 1-785)
chain: MAGTPAPNSHRKQSGGLEPFPGLSRSIENPPSKRARSFSETTVPDPEDPFGEHAEFTADDLEELDILASQALSQCPVAPRNLSSAHKVRRLDGLPNSPIRKSREDIPVKDNFELEVLQIQYKELKEKLKAMEEEILIKNGEIKILRDSLRQTESVLEEQKRSHFLLEQEKTQALSEKEKEFSRKLQSLQSELQFKDAEMNELRTKSQSNGRTNKPAAPSVSHVSPRKGSSVVLKSEACSPHVGKTTFPTKESFSANTPLFHPCQTEAGHRFLVGQEVSDNKNHSLGGSLMKQDVQQRILADGWMQRKDAQGSILINLLLKQPLVPGSSLGLCHLLSSCPEVPTGTLLQPPGLSTLPGTSGLRTISSSDGPFSPSALREAQNLAFTGLNLVARTESSHDGDMAGRRVFPLHQLPGAVHLLPLVQFFVGLHCQALQDLAPAKKSGVPGDSATHTSCMSSGVEASPEDSIHGLESFSVASLSVLQNLVCHSGAVVCLLLSGMGTEAAAREGNLVQTCADTTSASREDAHDQDQHPLLKMLLQLMASSSAASGHFQASVLGLCLKVLVKLAENASSDLLPRFSCVFPVLPQCLGSALPLPCVLLAVELLSVLLDHDSLAWQLCSHPEGCLLLRLYMYITSRPDRTASETQWLQLEQEVVWLLAKLSVQSPAPAGIGSDCHCNVEAVRALTVMLHRQWLTVRRAGGPRTHQQKQTIRCLRDTVLLLHSLSQKDKLFTVHCVEVLHQYDQVMPGVSMLIRALPDVTDCEEAALDDLCAAETDLEDSEMDCN
B2: USP4 (protein, UniProt P35123 1-962)
chain: MAEGRGSRERPDVETQKTELGALMGTTLQRGAQWYLIDSRWFKQWKKYVGFDSWDMYNVGEHNLFPGPIDNSGLFSDPESQTLKEHLIDELDYVLVPAEAWNKLLNWYGCVEGQQPIVRKVVEHGLFVKHCKVEVYLLELKLCENSDPTNVLSCHFSKADTIATIEKEMRKLFNIPAERETRLWNKYMSNTYEQLSKLDNTIQDAGLYQGQVLVIEPQNEDGTWPRQSLQSKSSTAPSRNFTTSSKPSASPYCSVSASLIANGDSTNSSGMHSSGVSRGGSGFSASYNCQEPPSPHIQPGLCGLGNLGNTCFMNSALQCLSNTAPLTEYFLKDEYEAEINRDNPLGMKGEIAEAYAELIKQMWSGRDTHVAPRMFKTQVGRFAPQFSGYQQQDSQELLAFILDGLHEDLNRVKKKPYLEPKDANGRPDAVVAKEAWENHRLRNDSVIVDTFHGLFKSTLVCPECAKVSVTFDPFCYLTLPLPLKKDRIMEVFLVPADPQCRPIQYRVTVPLMGAISDLCEALSKLSGIAAENMVVTDVYNHRFHKIFQMDEGLSHITPRDDIFVYEVCNTSMDGSECITLPVYFREKKSRPSSASSGAVLYGQPLLVSVPKHKLTLESLYQAVCDRISRYIKQPLPDEFLSSPLEPGACNGSRSSYEGDEEEEMDHQEEGKEQLSEVEGSGEDDQGDDHSESAQKVKGQPRHKRLFTFSLVNSCGTADINSLATDGKLLKLNSRSTLAIDWDSETRSLYFDEQESEACEKHLSMSQPQKKKKAAVALRECIELFTTMETLGEHDPWYCPTCKKHQQATKKFDLWSLPKILVVHLKRFSYNRYWRDKLDTVVEFPVRALNMSEFVCDRSARPYVYDLIAVSNHYGAMGVGHYTAYAKNRLNGKWYYFDDSSVSLASEDQIVTKAAYVLFYQRRDDECSSTSSLGSFPGSDGGVKLSSSHQGMGDEEAYNMDTN

How the values were obtained:
[1] = target: T1, FANCJ (BRCA1 Interacting Protein 1, BRIP1), endogenous wild-type protein in mouse testis (mouse (endogenous in testis)); assay: co-IP; anti-FANCJ (custom rabbit polyclonal, Dynabeads protein A) immunoprecipitation from mouse whole testis lysate (Fancj+/+; Fancj-/- and IgG as controls), Tris lysis buffer with 0.2% NP-40, 150 mM NaCl, overnight at 4°C, western blot
[2] = target: T2, FANCJ-HA (endogenous FANCJ with C-terminal 6xHis-HA epitope tag, Fancj^HA allele) (mouse (endogenous in testis)); assay: co-IP; anti-HA (magnetic beads) immunoprecipitation from Fancj^HA/HA whole testis lysate (Fancj+/+ as control), Tris lysis buffer with 0.2% NP-40, 150 mM NaCl, overnight at 4°C, western blot

Row | Molecule | binding [1] | binding [2]
1 | RUVBL1 (from UniProt P60122 1-456) | no binding | no binding
2 | TOPBP1 (from UniProt Q6ZQF0 1-1515) |  | no binding
3 | ADAD2 (from UniProt Q9D5P4 1-561) | no binding | no binding
4 | B1 | no binding | no binding
5 | B2 | no binding | no binding
